Data: the supplement of paper PMC12067093, “Discovery and optimisation of a covalent ligand for TRIM25 and its application to targeted protein ubiquitination” (Chemical Science, 2025)
The list shows a part of the results.

These targets were tested with CC1Cc2ccccc2N1C(=O)C1CCCN(C1)C(=O)CCl (mixture of isomers) [TRIM25 ligand 11 (diastereomer mixture)] (assay: probe-labelled cysteine peptide fold change vs DMSO (competition) (log2 fold change); higher = less target engagement (more negative = stronger competition)). Conditions: 10 µM; THP-1; incubation time: 4 h.
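Further: competitive chemoproteomic profiling in live THP-1 cells with an iodoacetamide desthiobiotin (IA-DTB) probe, comparing probe-labelled peptide intensities in compound-treated cells against DMSO-treated controls.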

Target | probe-labelled cysteine peptide fold change
GMPS_P49915_4_ALCNGDSK (UniProt P49915) | 0.0174
GLG1_Q92896_190_ECADEPVGK (UniProt Q92896) | 0.0707
GORAB_Q5T7V8_354_CQEQAVSPK (UniProt Q5T7V8) | 0.15
GOLGA3_Q08378_769_LGELQGEAASREDTICLLQNEK (UniProt Q08378) | -0.111
GNL3_Q9BVP2_131_LYCQELK (UniProt Q9BVP2) | -0.0404
GLOD4_Q9HC38-2_45_AACNGPYDGK (UniProt Q9HC38) | -0.0467
GNPDA1_P46926_239_TVFVCDEDATLELK (UniProt P46926) | -0.0544
GPHN_Q9NQX3_154_KGSQECFQFILPALPHAIDLLR (UniProt Q9NQX3) | -0.234
GLB1_P16278_426_TTLPQDCSNPAPLSSPLNGVHDR (UniProt P16278) | 0.431
GLOD4_Q9HC38-2_41_VLRHEEFEEGCK (UniProt Q9HC38) | -0.145
GOLGB1_Q14789_2664_RIAELEEELVCVQK (UniProt Q14789) | 0.01
GPATCH8_Q9UKJ3_639_MDAPASGSACSGLNK (UniProt Q9UKJ3) | 0.0227
GPBP1L1_Q9HC44_365_ENGEEGCHQNGLALPVVEEGEVLSHSLEAEHR (UniProt Q9HC44) | -0.129
GNPAT_O15228_668_LEEMLGCK (UniProt O15228) | 0.12
GLG1_Q92896_1071_ADIFVDPVLHTACALDIK (UniProt Q92896) | -0.0756
GPD2_P43304_45_AADCISEPVNR (UniProt P43304) | 0.135
GMIP_Q9P107_571_CTAEIEHR (UniProt Q9P107) | 0.204
GNAI2_P04899_287_ITHSPLTICFPEYTGANK (UniProt P04899) | 0.0199
GNB2_P62879_294_LLLAGYDDFNCNIWDAMK (UniProt P62879) | -0.00796

Same assay, conditions: 50 µM; THP-1; incubation time: 4 h

Target | probe-labelled cysteine peptide fold change
GOLGA4_Q13439_309_EQCTLLTSEK (UniProt Q13439) | -0.0895
GLYR1_Q49A26_303_CDLFIQEGAR (UniProt Q49A26) | -0.0795
GPATCH11_Q8N954_195_ACQQLDVQK (UniProt Q8N954) | -0.0743
GMFB_P60983_8_SESLVVCDVAEDLVEK (UniProt P60983) | -0.144
GLG1_Q92896_269_DAHSQGEVVSCLEK (UniProt Q92896) | -0.208
GMPS_P49915_137_EDGVFNISVDNTCSLFR (UniProt P49915) | -0.2
GNB4_Q9HAV0_25_ACNDATLVQITSNMDSVGR (UniProt Q9HAV0) | -0.202
GNPTG_Q9UJJ9_142_VELACGK (UniProt Q9UJJ9) | 0.0905
GLUL_P15104_99_LVLCEVFK (UniProt P15104) | 0.128
GNAI1_P63096_66_IIHEAGYSEEECK (UniProt P63096) | -0.00386
GLG1_Q92896_984_LSSDCEDQIR (UniProt Q92896) | -0.068
GMPS_P49915_523_TVGVQGDCR (UniProt P49915) | -0.139
GOLGA4_Q13439_1253_ISHCQHR (UniProt Q13439) | -0.0149
GLS_O94925_518+525_GIHFCHDLVSLCNFHNYDNLR (UniProt O94925) | -0.0125
GOT2_P00505_106_EYLPIGGLAEFCK (UniProt P00505) | 0.0569
GLRX2_Q9NS18_153_LLPLVHQCYLK (UniProt Q9NS18) | -0.00654
GM2A_P17900_138_TYGLPCHCPFK (UniProt P17900) | 0.523
GMPS_P49915_4_ALCNGDSK (UniProt P49915) | -0.169

Target | probe-labelled cysteine peptide fold change
GLG1_Q92896_190_ECADEPVGK (UniProt Q92896) | 0.307
GORAB_Q5T7V8_354_CQEQAVSPK (UniProt Q5T7V8) | -0.232
GOLGA3_Q08378_769_LGELQGEAASREDTICLLQNEK (UniProt Q08378) | -0.211
GNL3_Q9BVP2_131_LYCQELK (UniProt Q9BVP2) | -0.172
GLOD4_Q9HC38-2_45_AACNGPYDGK (UniProt Q9HC38) | -0.24
GNPDA1_P46926_239_TVFVCDEDATLELK (UniProt P46926) | 0.07
GPHN_Q9NQX3_154_KGSQECFQFILPALPHAIDLLR (UniProt Q9NQX3) | -0.269
GLB1_P16278_426_TTLPQDCSNPAPLSSPLNGVHDR (UniProt P16278) | -0.0549
GLOD4_Q9HC38-2_41_VLRHEEFEEGCK (UniProt Q9HC38) | -0.287
GOLGB1_Q14789_2664_RIAELEEELVCVQK (UniProt Q14789) | 0.115
GPATCH8_Q9UKJ3_639_MDAPASGSACSGLNK (UniProt Q9UKJ3) | -0.238
GPBP1L1_Q9HC44_365_ENGEEGCHQNGLALPVVEEGEVLSHSLEAEHR (UniProt Q9HC44) | -0.256
GNPAT_O15228_668_LEEMLGCK (UniProt O15228) | 0.037
GLG1_Q92896_1071_ADIFVDPVLHTACALDIK (UniProt Q92896) | -0.0987
GPD2_P43304_45_AADCISEPVNR (UniProt P43304) | -0.202
GMIP_Q9P107_571_CTAEIEHR (UniProt Q9P107) | 0.281
GNAI2_P04899_287_ITHSPLTICFPEYTGANK (UniProt P04899) | -0.121
GNB2_P62879_294_LLLAGYDDFNCNIWDAMK (UniProt P62879) | 0.0612
